No constants are given. Whether binding was seen depends on the method and setting. Binding seen in cells or lysates may run through a third protein. Some entries that bind do so weakly or less than the wild type.
Biological target: FLAG-SIRT1 (UniProt Q96EB6)
Assay: co-IP; anti-FLAG agarose IP from lysates of HEK293T cells transfected with the FLAG-tagged bait for 24 h, treated with DMSO or DOX (5 µM) for 8 h; IP lysis buffer 10 mM Tris-HCl pH 7.4, 100 mM NaCl, 2.5 mM MgCl2, 0.5% Triton X-100; overnight at 4 °C; western blot

Chains of the proteins cited; added tags and fusions are not shown.
UniProt Q96EB6: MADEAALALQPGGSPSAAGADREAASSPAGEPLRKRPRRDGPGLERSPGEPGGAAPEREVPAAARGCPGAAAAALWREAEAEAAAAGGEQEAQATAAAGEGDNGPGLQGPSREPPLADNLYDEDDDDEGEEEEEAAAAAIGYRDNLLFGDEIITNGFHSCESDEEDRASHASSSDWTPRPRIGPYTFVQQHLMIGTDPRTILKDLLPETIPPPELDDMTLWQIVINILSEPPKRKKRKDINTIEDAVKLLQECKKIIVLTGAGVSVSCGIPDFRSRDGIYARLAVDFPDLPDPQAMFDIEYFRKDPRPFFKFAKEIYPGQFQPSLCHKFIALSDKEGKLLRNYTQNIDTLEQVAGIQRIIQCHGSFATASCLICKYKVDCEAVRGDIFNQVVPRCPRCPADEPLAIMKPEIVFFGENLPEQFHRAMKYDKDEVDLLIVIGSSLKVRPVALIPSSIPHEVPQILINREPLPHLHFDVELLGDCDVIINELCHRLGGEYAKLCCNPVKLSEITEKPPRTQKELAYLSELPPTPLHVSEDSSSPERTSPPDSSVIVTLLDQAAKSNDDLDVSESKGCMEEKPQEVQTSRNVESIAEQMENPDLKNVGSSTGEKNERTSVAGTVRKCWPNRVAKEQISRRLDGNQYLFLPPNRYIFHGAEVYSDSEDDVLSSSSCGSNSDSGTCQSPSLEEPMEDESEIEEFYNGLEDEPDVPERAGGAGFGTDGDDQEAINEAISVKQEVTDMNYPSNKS
UniProt Q13263: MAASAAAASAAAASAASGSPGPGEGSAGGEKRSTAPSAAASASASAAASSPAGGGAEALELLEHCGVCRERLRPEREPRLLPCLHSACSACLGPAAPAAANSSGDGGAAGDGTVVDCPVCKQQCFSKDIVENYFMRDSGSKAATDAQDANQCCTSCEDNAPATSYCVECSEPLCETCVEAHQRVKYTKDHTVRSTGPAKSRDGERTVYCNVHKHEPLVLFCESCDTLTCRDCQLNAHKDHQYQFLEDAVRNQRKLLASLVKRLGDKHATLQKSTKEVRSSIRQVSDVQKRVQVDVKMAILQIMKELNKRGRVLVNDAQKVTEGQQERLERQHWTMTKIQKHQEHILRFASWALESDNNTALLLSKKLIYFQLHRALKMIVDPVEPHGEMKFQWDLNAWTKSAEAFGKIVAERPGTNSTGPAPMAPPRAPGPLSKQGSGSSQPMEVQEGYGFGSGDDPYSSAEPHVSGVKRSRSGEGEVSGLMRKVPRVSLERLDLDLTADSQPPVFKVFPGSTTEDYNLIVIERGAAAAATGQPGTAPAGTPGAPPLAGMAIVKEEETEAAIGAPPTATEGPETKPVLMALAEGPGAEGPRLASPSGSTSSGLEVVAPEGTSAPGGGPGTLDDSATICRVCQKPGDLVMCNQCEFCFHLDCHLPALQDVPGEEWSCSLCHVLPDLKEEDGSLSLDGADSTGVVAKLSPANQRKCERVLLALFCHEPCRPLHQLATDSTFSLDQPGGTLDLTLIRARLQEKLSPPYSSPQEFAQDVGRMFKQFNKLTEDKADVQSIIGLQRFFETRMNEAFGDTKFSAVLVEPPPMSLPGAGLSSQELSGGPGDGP

binding: binds
Substance: TRIM28 (tripartite motif-containing protein 28) (from UniProt Q13263 1-835)
